According to patent US6489440B1, “Cyclic compounds” (Basilea Pharmaceutica AG, priority 1998, dated 2002):
At least one peptide structure holds a part that was inferred or is arguable (an end, a ring closure or a residue). Numbered stars: 1 amine (or outer) side, 2 acyl side, 3 side chain; on linkers, the order of the positions; unused ones are H or OH. Square brackets hold non-standard residues; d marks the D form. Peptide text beside a SMILES is read from it. * marks the point of attachment. ξ: configuration not given here. X6 = CCCCCCCCCCCCC[C@H](CC(=O)NC(C(=O)O)C(C)O)O*; X2 = NC(=O)CC(O)C(N[*:1])C(=O)[*:2]; X1 = O=C(C1C(O)CCN1[*:1])[*:2]; ξHyp = O=C(O)C1CC(O)CN1; ξOrn = NCCCC(N)C(=O)O; ξT = CC(O)C(N)C(=O)O; ξV = CC(C)C(N)C(=O)O

System: various fungi
Experiment: Fungicidal activity against various fungi
Format: cell-based

SMILES: CCCCCCCCCCCCC[C@H](CC(=O)NC(C(=O)O)C(C)O)OC(=O)C(CCCN)NC(=O)C(NC(=O)CNC(=O)C(NC(=O)C1C(O)CCN1C(=O)C(NC(=O)C(NC(=O)C1CC(O)CN1C(=O)C(N)C(C)C)C(C)O)C(C)O)C(O)CC(N)=O)C(C)O (stereo partly shown) [Compound (IX)] (H-[ξV][ξHyp][ξT][ξT][X1][X2]G[ξT][ξOrn]-X6)
- fungicidal activity against various fungi: does not exhibit any fungicidal activity
